## Microarray screen: hit calls

Calls as published in the ROBIN set (doi:10.1002/anie.202211358).

Targets, with sequences 5′ to 3′:
TPP: TPP riboswitch RNA three-way junction, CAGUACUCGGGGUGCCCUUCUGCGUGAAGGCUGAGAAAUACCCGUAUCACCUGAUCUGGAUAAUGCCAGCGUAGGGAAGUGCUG. About 160 hits among about 24,000 compounds.
SAM-II: SAM-II riboswitch RNA pseudoknot, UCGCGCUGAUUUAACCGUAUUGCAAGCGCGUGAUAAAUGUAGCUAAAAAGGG. About 200 hits among about 21,000 compounds.
PreQ1: PreQ1 riboswitch RNA pseudoknot, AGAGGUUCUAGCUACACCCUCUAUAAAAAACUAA. From B. subtilis. About 170 hits among about 24,000 compounds.

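The test is a small-molecule microarray: each compound is printed twice on a reactive slide, and binding shows as fluorescence of the labelled oligonucleotide after washing. For the PreQ1, TPP and SAM-II riboswitches the laboratory earlier reported (doi:10.1038/s41467-019-09493-3) 1 µM RNA, 2 h, and a rule that included a mean Z-score above 3 (spot signal-to-noise against the whole library), a score well above that on a control array, and duplicate spots agreeing (coefficient of variation under 100). The data file gives only the calls; its cut-offs may differ, and compounds hitting several targets are kept. The calls come from the array alone, and fixing a compound to the slide can hide its binding.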 Key: hit = hit, none = tested without a hit. This is an unselected part of the compounds tested. A target missing from an entry has no call listed here.

{"compound": "COc1ccccc1-c1cc2nc(C)cc(NC3CCCC3)n2n1", "TPP": "none", "PreQ1": "none"}
{"compound": "Cc1nc2c(c(-n3nc(N)c(C#N)n3)nn2C)c(C)c1Cl", "TPP": "none", "SAM-II": "none", "PreQ1": "none"}
{"compound": "Cn1c(=O)c2c(nc(CN3CCOCC3)n2CCCO)n(C)c1=O", "TPP": "none", "SAM-II": "none", "PreQ1": "none"}
{"compound": "Cn1c(=O)c2c(nc(NCCCO)n2Cc2cccc(F)c2)n(C)c1=O", "TPP": "none", "SAM-II": "none", "PreQ1": "none"}
{"compound": "CC1(C)CC(=O)C=C(Nc2ccc(Cl)cc2)C1", "TPP": "none", "SAM-II": "none", "PreQ1": "none"}
{"compound": "O=C1CC(Nc2ccc(F)cc2)C(=O)N1c1ccc(Br)cc1", "stereo": "stereo not given", "TPP": "none", "SAM-II": "none", "PreQ1": "none"}
{"compound": "Cc1nn(-c2ccccc2)c(C)c1CC(=O)NCc1cc2n(n1)CCNC2", "TPP": "none", "SAM-II": "none", "PreQ1": "none"}
{"compound": "Cc1ccccc1Nc1c(-c2cccnc2)nc2cccc(C)n12", "TPP": "none", "SAM-II": "none", "PreQ1": "none"}
{"compound": "Cn1cccc1CNCc1cccnc1", "TPP": "none", "SAM-II": "none", "PreQ1": "none"}
{"compound": "Cc1c(C#N)c(N)n(CCC2=CCCCC2)c1C", "TPP": "none", "SAM-II": "none", "PreQ1": "none"}
{"compound": "Cc1ccccc1C(=O)N1CCC(C(=O)N2CCOCC(CO)C2)CC1", "stereo": "stereo not given", "TPP": "none", "SAM-II": "none", "PreQ1": "none"}
{"compound": "COc1cc(-c2nnc(N)s2)cc(OC)c1OC", "TPP": "none", "SAM-II": "none", "PreQ1": "none"}
{"compound": "CSc1nc(=O)[nH]nc1Sc1ccccc1", "TPP": "none", "SAM-II": "none", "PreQ1": "none"}
{"compound": "CCOc1ccc(NC2=NS(=O)(=O)C(c3ccccc3)=C2C)cc1", "TPP": "none", "PreQ1": "none"}
{"compound": "CC1=NC2=CC=CC3=NC(C(Cl)(Cl)Cl)=NC(=N1)N23", "TPP": "none", "SAM-II": "none", "PreQ1": "none"}
{"compound": "Cc1nc2sc(C#N)c(N)c2c(C)c1Cl", "TPP": "none", "SAM-II": "none", "PreQ1": "none"}
{"compound": "O=C(CN1C(=O)COCC1=O)N1CCCC2(CCNC2)C1", "stereo": "stereo not given", "TPP": "none", "SAM-II": "none", "PreQ1": "none"}
{"compound": "Cc1cccc2cc(-c3noc(C(C)C)n3)c(NCc3ccccn3)nc12", "TPP": "none", "PreQ1": "none"}
{"compound": "COCCCC1CCCCN1C(=O)c1ccc(N)nc1", "stereo": "stereo not given", "TPP": "none", "SAM-II": "none", "PreQ1": "none"}
{"compound": "COC(=O)c1nnc2ccnn2c1N", "TPP": "none", "SAM-II": "none", "PreQ1": "none"}
{"compound": "CCn1nc(CC2CCN(C)CC2)nc1-c1ccc2c(c1)NC(=O)CN2", "TPP": "none", "SAM-II": "none", "PreQ1": "none"}
{"compound": "COc1cc(C=C2C(C)=C(C#N)c3nc(N)c(C#N)c(C)c32)cc2c1OCO2", "TPP": "none", "SAM-II": "none", "PreQ1": "none"}
{"compound": "O=C(O)c1ccc(Nc2nc(-c3ccccc3)c3ccccc3n2)cc1", "TPP": "none", "SAM-II": "none", "PreQ1": "none"}
{"compound": "N#Cc1c(-c2cccc(Br)c2)cc(-c2ccccc2)nc1N", "TPP": "none", "SAM-II": "none", "PreQ1": "none"}
{"compound": "COc1ccc(N2C(=O)CC(NCCCc3ccccc3)C2=O)cc1", "stereo": "stereo not given", "TPP": "none", "SAM-II": "none", "PreQ1": "none"}
{"compound": "COc1cccc(-c2ccc(NC(=O)C3=C(C(=O)O)CCC3)c(F)c2)c1", "TPP": "none", "SAM-II": "none", "PreQ1": "none"}
{"compound": "COC(=O)c1c(C)sc2c1OC(N)=C(C#N)C2c1ccccc1", "stereo": "stereo not given", "TPP": "none", "SAM-II": "none", "PreQ1": "none"}
{"compound": "O=c1c(CO)cc2cccc3c2n1CCC3", "TPP": "none", "SAM-II": "none", "PreQ1": "none"}
{"compound": "Cc1c(NC2=CC(=O)CC(C)(C)C2)c(=O)n(-c2ccccc2)n1C", "TPP": "none", "SAM-II": "none", "PreQ1": "none"}
{"compound": "Cc1ccc(CNc2ccc(N3CCOCC3)c(C(=O)O)c2)cc1", "TPP": "none", "SAM-II": "none", "PreQ1": "none"}
{"compound": "Nc1nnc(SCC(=O)Nc2ccc(Cl)c(Cl)c2)s1", "TPP": "none", "SAM-II": "none", "PreQ1": "none"}
{"compound": "O=C1CN(CC(=O)N2CCC3(CC2)OCCCC3O)C(=O)N1", "stereo": "stereo not given", "TPP": "none", "SAM-II": "none", "PreQ1": "none"}
{"compound": "CN(C)C[C@H]1C[C@H](CO)CN(c2ncc(F)c(N3CCOCC3)n2)C1", "TPP": "none", "SAM-II": "none", "PreQ1": "none"}
{"compound": "CN(Cc1cccnc1)S(=O)(=O)c1ccc2c(c1)CN(C(=O)CO)CC2", "TPP": "none", "SAM-II": "none", "PreQ1": "none"}
{"compound": "Cc1ccc(NC(=O)[C@@H]2CNC[C@H](C(=O)NCCCc3ccco3)C2)cn1", "TPP": "none", "SAM-II": "none", "PreQ1": "none"}
{"compound": "CCCNc1nc(-c2cccc(Br)c2)cs1", "TPP": "none", "SAM-II": "none", "PreQ1": "none"}
{"compound": "CN1CCC(N(Cc2ccncc2)C(=O)c2sccc2N)CC1", "TPP": "none", "SAM-II": "none", "PreQ1": "none"}
{"compound": "COc1ccc([C@H]2C[C@@H](c3ccccc3Cl)Nc3nc(N)nn32)cc1", "TPP": "none", "SAM-II": "none", "PreQ1": "none"}
{"compound": "C[C@@]1(O)CCN(C(=O)c2cccc(C#N)c2)C[C@@H]1O", "TPP": "none", "SAM-II": "none", "PreQ1": "none"}

Repeated from the top, 4 entries:

{"compound": "COc1ccccc1-c1cc2nc(C)cc(NC3CCCC3)n2n1", "TPP": "none", "PreQ1": "none"}
{"compound": "Cc1nc2c(c(-n3nc(N)c(C#N)n3)nn2C)c(C)c1Cl", "TPP": "none", "SAM-II": "none", "PreQ1": "none"}
{"compound": "Cn1c(=O)c2c(nc(CN3CCOCC3)n2CCCO)n(C)c1=O", "TPP": "none", "SAM-II": "none", "PreQ1": "none"}
{"compound": "Cn1c(=O)c2c(nc(NCCCO)n2Cc2cccc(F)c2)n(C)c1=O", "TPP": "none", "SAM-II": "none", "PreQ1": "none"}